Assay results reported in US20220363689A1, “INHIBITOR OF BTK AND MUTANTS THEREOF” (Newave Pharmaceutical Inc., priority 2019, published 2022).

Amino acid sequences for entries named in this document (tags omitted). A change or cut given only in a name is not applied to a line headed by its entry.
UniProt Q06187, whole entry: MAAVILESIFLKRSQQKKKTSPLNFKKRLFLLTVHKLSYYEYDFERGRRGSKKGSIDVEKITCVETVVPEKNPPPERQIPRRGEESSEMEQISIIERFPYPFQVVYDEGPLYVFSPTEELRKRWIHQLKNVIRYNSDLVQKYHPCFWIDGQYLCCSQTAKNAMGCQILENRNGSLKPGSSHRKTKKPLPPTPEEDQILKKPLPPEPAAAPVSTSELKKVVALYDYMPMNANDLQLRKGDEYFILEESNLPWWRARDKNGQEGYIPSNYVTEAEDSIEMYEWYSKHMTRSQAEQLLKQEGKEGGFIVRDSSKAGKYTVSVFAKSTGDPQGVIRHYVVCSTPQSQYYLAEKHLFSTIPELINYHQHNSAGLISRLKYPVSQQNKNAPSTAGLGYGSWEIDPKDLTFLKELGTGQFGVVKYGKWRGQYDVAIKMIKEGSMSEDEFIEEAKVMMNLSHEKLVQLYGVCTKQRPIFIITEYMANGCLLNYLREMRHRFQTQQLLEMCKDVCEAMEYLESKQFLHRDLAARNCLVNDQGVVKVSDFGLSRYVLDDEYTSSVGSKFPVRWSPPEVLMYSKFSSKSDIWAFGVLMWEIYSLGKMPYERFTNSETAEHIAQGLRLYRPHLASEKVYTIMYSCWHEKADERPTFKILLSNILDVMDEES
UniProt Q06187, whole entry C481S: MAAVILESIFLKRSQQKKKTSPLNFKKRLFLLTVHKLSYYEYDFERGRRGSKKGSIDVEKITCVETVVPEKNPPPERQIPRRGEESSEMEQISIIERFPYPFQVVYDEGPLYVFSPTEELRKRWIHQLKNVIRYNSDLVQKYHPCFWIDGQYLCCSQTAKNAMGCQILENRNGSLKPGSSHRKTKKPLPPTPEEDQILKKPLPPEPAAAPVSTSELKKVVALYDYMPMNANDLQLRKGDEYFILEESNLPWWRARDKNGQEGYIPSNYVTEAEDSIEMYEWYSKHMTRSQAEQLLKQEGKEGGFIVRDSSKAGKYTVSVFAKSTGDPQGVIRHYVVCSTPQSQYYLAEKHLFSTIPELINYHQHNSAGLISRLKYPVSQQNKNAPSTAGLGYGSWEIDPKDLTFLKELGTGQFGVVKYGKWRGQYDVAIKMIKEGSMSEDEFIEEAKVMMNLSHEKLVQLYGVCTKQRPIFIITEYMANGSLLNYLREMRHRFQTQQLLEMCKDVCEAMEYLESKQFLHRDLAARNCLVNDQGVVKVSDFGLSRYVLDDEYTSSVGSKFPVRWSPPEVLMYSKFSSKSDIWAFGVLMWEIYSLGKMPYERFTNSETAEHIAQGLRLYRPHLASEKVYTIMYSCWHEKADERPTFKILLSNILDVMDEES

Experiments:
Assay type in all cases: biochemical
[1] = molecular target: T1, WT BTK (Homo sapiens, UniProt Q06187); test: In vitro dialysis assay (irreversibility assay), WT BTK; conditions: reversible or irreversible/covalent inhibition after 24 h dialysis
[2] = molecular target: T1, WT BTK; test: Caliper-based kinase assay, WT BTK; conditions: read-out: WT BTK IC50 (nM) (irreversible inhibition); 0.5 nM enzyme, ATP 16 μM, room temperature 3 h
[3] = molecular target: C481S Btk (Homo sapiens, UniProt Q06187, C481S); test: Caliper-based kinase assay, C481S BTK; conditions: read-out: C481S BTK IC50 (nM) (reversible inhibition); 0.5 nM enzyme, ATP 16 μM, room temperature 3 h

- Conclusion (WT BTK) [1]: Irreversible/covalent inhibition
- IC50 [2]: 0.058 nM
- IC50 [3]: 0.4 nM
SMILES: C=CC(=O)Nc1cc(Nc2nc(-c3ccnc(N4CCn5c(cc6c5CC(C)(C)C6)C4=O)c3CO)cn(C)c2=O)ccc1N1CCC(N2CCC(F)(F)CC2)C[C@@H]1C (stereo partly drawn)

The match of structure and compound is tentative.
